# Source: PubChem BioAssay AID540335 (Broad Institute, 2011)
# In all, about 1,300 compounds went through this assay and about 270 (21%) were called active.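 How the source made its calls: active means dose-dependent rise or fall in viability, either side of zero, with half-maximal concentration at or below a set limit; inconclusive means flat curve at 30 to 70% viability loss, or poor fit; inactive means flat within 30% either way, or potency beyond limit.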 Some of the results follow. Results with a measured potency or affinity are listed apart.
# Experiment: proliferation inhibition in MITF-low A375 cells – cell-based, cherry-pick samples, set 2, counter-screen for MITF modulator project, dose response (AID 540335);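 further: A375 human melanoma cells which do not depend on MITF; 0% = median of neutral control wells and 100% = double that signal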
# Conditions: CellTiter-Glo ATP luminescence, 24 h; at 35 µM (top of the series)
row,SMILES,"activity change, negative = decreased viability"
1,N/C(=N\OC(=O)c1ccccc1Cl)c1cccc([N+](=O)[O-])c1,inactive: 0.706%
2,O=C(Nc1ccccc1N1CCN(C(=O)c2ccccc2)CC1)c1ccc([N+](=O)[O-])o1,inactive: 4.91%
3,COc1ccc(CNC(=O)CN2C(=O)C3C4C=CC(C4)C3C2=O)cc1 (stereo unspecified),inactive: 8.04%
4,COc1ccc(C(=O)NCCSc2ccccc2C)cc1,inactive: -8.17%
5,CCOc1ccc(N/C=C/C(=O)c2ccc(OC)c(OC)c2)cc1,inactive: -11.4%
6,CC1CCN(c2nc3ccc(C(=O)O)cc3s2)CC1,inactive: -18%
7,C=CCN1C(=O)S/C(=C\c2ccc(N3CCOCC3)cc2C)C1=O,inactive: 2.72%
8,COc1ccc(NC(=O)NC(=O)c2ccccc2)cc1,inactive: -1.06%
9,O=C(Nc1nnc(Cc2ccccc2)s1)c1ccccc1,inactive: 4.38%
10,O=C(NC1CCCC(C(F)(F)F)C1)c1ccc([N+](=O)[O-])o1 (stereo unspecified),inactive: 18.6%
11,Cn1nc([N+](=O)[O-])nc1S(C)(=O)=O,inactive: -14.2%
12,O=C(CSC(=S)N1CCCCC1)c1c(F)cccc1F,inactive: 3.08%
13,CCOc1ccc(NC(=O)c2ccccn2)cc1,inactive: -23.9%
14,C/C(=N/NC(=O)C(O)(c1ccccc1)c1ccccc1)c1ccc([N+](=O)[O-])o1,inactive: -9.11%
15,O=C(N/N=C/c1ccc([N+](=O)[O-])o1)c1cc2ccccc2o1,inactive: -33.2%
16,O=[N+]([O-])c1ccc(N/N=C/C=C/c2ccco2)cc1,inactive: 10.1%
17,CCC(=O)N1CCN(c2ccc(NC(=O)c3ccc([N+](=O)[O-])o3)cc2)CC1,inactive: 8.91%
18,Cc1cc(Cl)ccc1OCCCC(=O)N1CCOCC1,inactive: 10.2%
19,Cc1ccc(NC(=O)c2cc(N3C(=O)C=CC3=O)ccc2N2CCOCC2)cc1Cl,inactive: -7.39%
20,O=C(N/N=C/c1ccc(O)c2ncccc12)c1cccc(Br)c1,inactive: -36.7%
21,O=C(Cn1ncc(Cl)c(Cl)c1=O)Nc1ccc2c(c1)OCO2,inactive: 26.9%
22,CCCOc1ccc(-c2c(=O)n(O)c3ccccc3[n+]2[O-])cc1,inactive: 6.07%
23,O=C(N/N=C/c1ccc([N+](=O)[O-])o1)c1ccccc1-n1cccc1,inactive: -22.6%
24,CCCC1=Nc2cc(C(=O)NCCN3CCCC3)ccc2Sc2ccccc21,inactive: -6.2%

row,SMILES,"activity change, negative = decreased viability"
1,Cc1nc2nc(C)c(NS(=O)(=O)c3ccc4c(c3)CCCC4)c(=O)n2[nH]1,inactive: 12.3%
2,O=C(c1nnsc1S(=O)(=O)c1ccc(Cl)cc1)N1CCOCC1,inactive: -5.83%
3,C/C(=N\NC(=O)C(C)Oc1ccc([N+](=O)[O-])cc1)c1ccccn1 (stereo unspecified),inactive: -25.9%
4,CC(C)(C)c1ccc(OCCn2ccccc2=O)cc1,inactive: 2.03%
5,O=C(CCCc1ccccc1)Nc1cccc(C(=O)O)c1,inactive: 3.96%
6,CC1CCN(C(=O)c2cc3ccccc3o2)CC1,inactive: 11.5%
7,O=C(c1ccccc1)c1cc(Cl)ccc1N1C(=O)C=CC1=O,inactive: -30.6%
8,CCOc1ccc2cc(C#N)c(SCC(=O)OC)nc2c1,inactive: -3.24%
9,COC(=O)[C@@H]1C[C@]2(OC(=O)c3ccccc3)C=CC(=O)C[C@@H]2N1C(=O)OCc1ccccc1,inactive: 5.93%
10,CCCCNC(=O)Nc1ccc(C2SCCS2)cc1,inactive: -14.6%
11,COc1ccc(S(=O)NC2CCCCC2)c(OC)c1C (stereo unspecified),inactive: -1.99%
12,O=C(Nc1ccc(N2CCCC2)c(Cl)c1)c1ccc([N+](=O)[O-])o1,inactive: -19.5%
13,Cc1ccc(NC(=O)c2cnc3ccccc3n2)cc1C,inactive: 3.06%
14,COc1cc(/C=C/C(=O)N2CCC=CC2=O)cc(OC)c1OC,inactive: 44.3%
15,CN(C)c1nc(C=C(C#N)C#N)c(Cl)n1-c1ccc(F)cc1,inactive: -10.1%
16,O=C(c1ccc(S(=O)(=O)Cc2ccccc2Cl)c([N+](=O)[O-])c1)N1CCN(c2ccccn2)CC1,inactive: -4.16%
17,O=C(CS(=O)c1ccc(C(F)(F)F)cc1[N+](=O)[O-])Oc1ccccc1 (stereo unspecified),inactive: 0.077%
18,Cc1ccc(C(=O)N/C(=C\c2ccc(-c3ccccc3[N+](=O)[O-])o2)C(=O)NCCN(C)C)cc1,inactive: -8.4%
19,Cc1ccc(S(=O)(=O)CC(CN2CCCCC2)N2CCCCC2)cc1 (stereo unspecified),inactive: -9.59%
20,Cc1ccc(NC(=O)c2cc3ccccc3oc2=O)cc1S(=O)(=O)N(C)C,inactive: 5.66%
21,N#C/C(=C(/O)c1ccc([N+](=O)[O-])o1)c1nc2ccccc2[nH]1,inactive: -27.3%
22,CCOC(=O)C1(Cc2cccc(OC)c2)CCCN(C(=O)CSC)C1 (stereo unspecified),inactive: -0.174%
23,CCN(Cc1ccc(OC)c(F)c1)C(=O)CCl,inactive: -25.2%
24,CC(C)c1ccc(CNc2ncccn2)cc1,inactive: 11.7%

# No new results follow: entries from further up.
row,SMILES,"activity change, negative = decreased viability"
8,COc1ccc(NC(=O)NC(=O)c2ccccc2)cc1,inactive: -1.06%
9,O=C(Nc1nnc(Cc2ccccc2)s1)c1ccccc1,inactive: 4.38%
10,O=C(NC1CCCC(C(F)(F)F)C1)c1ccc([N+](=O)[O-])o1 (stereo unspecified),inactive: 18.6%
11,Cn1nc([N+](=O)[O-])nc1S(C)(=O)=O,inactive: -14.2%

# Following part.

row,SMILES,"activity change, negative = decreased viability"
1,CCN(CC)CCn1nc2c3c(cccc3c1=O)-c1ccccc1-2,inactive: -17.6%
2,COc1ccccc1N1CCN(/N=C\c2ccccc2)CC1,inactive: -2.87%
3,CC(=C/c1ccco1)/C=N/N1CCN(c2ccccc2)CC1,inactive: -30.1%
4,N=C1C(c2nc3ccccc3[nH]2)=C(O)CN1C1CCCCC1,inactive: 5.93%
5,CCC(=O)Nc1cc2nn(-c3ccc(C)cc3)nc2cc1C,inactive: 7.67%
6,O=C(/C=C\c1ccccc1)NCC(=O)N/N=C/c1ccc(O)cc1O,inactive: -16.7%
7,Nc1ccc(-c2ncc(-c3ccccc3)o2)cc1,inactive: 5.66%
8,Cc1c(C(=O)N(CCO)Cc2ccccc2)oc2c(F)cccc12,inactive: 10.3%
9,CC(C)N1C/C(=C/c2cccnc2)C(=O)/C(=C/c2cccnc2)C1,inactive: 37.1%
10,CC(=O)COc1ccc2cc(-c3ccccc3)c(=O)oc2c1,inactive: 4.89%
11,c1ccc(OCc2nn3c(-c4ccccn4)nnc3s2)cc1,inactive: 4.7%
12,C=CCOc1ccc(/C=C/C(C)=N\O)cc1,inactive: 6.78%
13,O=C(Nc1ccc(N2CCN(C(=O)c3ccccc3)CC2)cc1)c1ccc([N+](=O)[O-])o1,inactive: 37.8%
14,O=C1c2cc([N+](=O)[O-])cc3cc([N+](=O)[O-])cc(c23)C(=O)N1c1ccccn1,inactive: -21.4%
15,Cc1cc(N2CCOCC2)ccc1/C=C\[N+](=O)[O-],inactive: -10.1%
16,Cc1nn(-c2ccccc2Cl)c(Cl)c1/C=N/Nc1cccc(C(=O)O)c1,inactive: 13.6%
17,CCOC(=O)c1ccc(NC(=O)Cc2cccs2)cc1,inactive: 3.63%
18,CCC(=O)N1CCN(c2ccc(Cl)cc2NC(=O)c2ccc([N+](=O)[O-])o2)CC1,inactive: 10.8%
19,CCN(CC)CCNC(=O)c1c(C)n(-c2ccccc2)c2cc(Br)c(OC)cc12,inactive: -49.1%
20,COc1ccc(Br)cc1C(C[N+](=O)[O-])c1c(N)n(C)c(=O)n(C)c1=O (stereo unspecified),inactive: 2.48%
21,O=C(CCC(=O)c1ccc[nH]1)c1ccc(Cl)cc1,inactive: -1.75%
22,Clc1ccc(-c2c[n+](Cc3cccc(Cl)c3)c3n2CCC3)cc1,inactive: 3.73%
23,Cc1ccc(NC(=O)Cn2ncc(Cl)c(Cl)c2=O)cc1S(=O)(=O)N1CCCCC1,inactive: -14.3%
24,O=C(O)c1cccc(N/N=C/c2cccs2)c1,inactive: -3.87%

row,SMILES,"activity change, negative = decreased viability"
1,N#C/C(=C(/O)CCl)c1nc2ccccc2[nH]1,inactive: -10.4%
2,CSCCNC(=O)c1ccc2nc(Cc3ccccc3F)oc2c1,inactive: 9.34%
3,O=[N+]([O-])c1ccccc1OCCOc1ccccc1[N+](=O)[O-],inactive: -0.92%
4,O=C(Nc1nc(-c2ccccn2)cs1)c1ccc([N+](=O)[O-])o1,inactive: -35.5%
5,COc1cc2c(cc1O)C(SC)=NC(C)(C)C2,inactive: -20.8%
6,COc1cccc(NC(=O)c2cc3c(=O)n4ccccc4nc3n(CC(C)C)c2=N)c1,inactive: -8.17%
7,CCNc1nc(N)c(C(=O)c2ccc(Cl)s2)s1,inactive: 4.23%
8,O=C(N/N=C/c1cc(Br)ccc1O)c1ccncc1,inactive: -24.7%
9,COc1cc(OC)cc(-c2oc(=O)c3cc(OC)c(OC)cc3c2C(F)(F)F)c1,inactive: -13.4%
10,COC1=C(Nc2ccccc2)C(=O)c2ccccc2C1=O,inactive: -20.6%
11,Cc1cc(C(=O)CCl)c(C)n1CCc1ccc(F)cc1,inactive: -24.7%
12,COc1cc(/C=C/C(=O)c2ccc3c(c2)OCCO3)cc(Br)c1OCC(=O)N(C)C,inactive: 107%
13,O=C(NCCSc1ccccc1)c1ccccc1F,inactive: 6.97%
14,CN(C)S(=O)(=O)c1cccc(NC(=O)CSc2nc3c(cc2C#N)C(=O)CC(C)(C)C3)c1,inactive: 1.16%
15,COc1ccc(C(=O)CN2Cc3ccccc3C2=N)cc1,inactive: -0.752%
16,O=C(Nc1ccc2nc3n(c(=O)c2c1)CCCCC3)c1cc([N+](=O)[O-])ccc1F,inactive: 47.5%
17,COc1ccc(C(=O)Nc2nc3ccc(OC)cc3s2)cc1,inactive: 0.195%
18,COc1ccc2oc3ccc(OC)cc3c(=O)c2c1,inactive: -5.84%
19,CN(C)S(=O)(=O)c1ccc(-c2csc(N/N=C/c3ccco3)n2)cc1,inactive: -2.6%
20,Cc1ccc(/C=c2/sc3n(c2=O)CCCN=3)o1,inactive: -4.61%
21,FC(F)(F)c1cc(CCN2CCNC[C@@H]2Cc2ccccc2)cc(C(F)(F)F)c1,inactive: -94.9%
22,O=C(Nc1ccccc1F)c1ccc2c(c1)OCO2,inactive: -7.28%
23,Cc1cccc(OCc2nc3ccccc3n2C)c1,inactive: 16.1%
24,O=C(Nc1ccc(S(=O)(=O)N2CCCCCC2)cc1)c1[nH]ncc1[N+](=O)[O-],inactive: -21%

# Random excerpt: 2 entries already listed.
row,SMILES,"activity change, negative = decreased viability"
3,O=[N+]([O-])c1ccccc1OCCOc1ccccc1[N+](=O)[O-],inactive: -0.92%
11,Cc1cc(C(=O)CCl)c(C)n1CCc1ccc(F)cc1,inactive: -24.7%
